The list shows only some results of the screen, not a fair sample: it gathers tests that were run many times, whatever their T/C, doses with no T/C, and many T/C values between a quarter and a half above the control. Other doses and runs of a compound stand elsewhere. T/C gives the treated animals as a percentage of the vehicle group. Some entries give survivors of the animals treated and no T/C: the source files T/C as zero there, which appears to mark a toxic dose or a test without result, not a measured value. Some doses without a T/C left all or most animals alive at the check, yet need not have been tolerated: the source hardly ever lists a survival T/C far under the control, and the zero likely stands for such cases as well. Survivors were counted at the toxicity check, usually on the fifth day, unless a day is given; later deaths do not show. Schedule codes are those of the source, taken here to give the interval after Q, in days (D) or hours (H), and the number of doses after X. Some molecules as drawn cover several salts, stereoisomers or complexes of the source; a dose is that of the sample tested. Signs of the kind (2×) stand for listed records that agree. Some entries hold several experiments; the values are given in rising order. Where survival is the endpoint, this PubChem deposit counts one and a half times the control or more as active, and values a quarter to a half above the control carry no call in these data; other NCI protocols may use other cut-offs. Some T/C values are followed by the survivors on the day toxicity was checked, most often the fifth; where none is given, no animal had died by that day.
Test system: CD2F1 mice, L1210 leukemia ip, survival T/C
Test: NCI In Vivo Anticancer Drug Screen. Data for tumor model L1210 Leukemia (intraperitoneal) in CD2F1 (CDF1) mice
Details: higher T/C = longer survival
Outline: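 Activity against a transplanted murine tumor was judged by comparing the compound group with a vehicle group. The outcome in the treated animals was divided by that in the controls.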

[1] = T/C endpoint: mean survival time, dose: 400.0 mg/kg/injection, schedule: Q04DX002 (ip), vehicle: saline with Tween-80
[2] = T/C endpoint: mean survival time, dose: 200.0 mg/kg/injection, schedule: Q01DX009 (ip), vehicle: saline with Tween-80
[3] = T/C endpoint: mean survival time, dose: 400.0 mg/kg/injection, schedule: Q01DX009 (ip), vehicle: saline with Tween-80
[4] = T/C endpoint: mean survival time, dose: 200.0 mg/kg/injection, schedule: Q01DX009 (ip), vehicle: saline
[5] = T/C endpoint: mean survival time, dose: 400.0 mg/kg/injection, schedule: Q01DX009 (ip), vehicle: saline
[6] = T/C endpoint: mean survival time, dose: 400.0 mg/kg/injection, schedule: Q04DX003 (ip), vehicle: saline with Tween-80
[7] = T/C endpoint: mean survival time, dose: 300.0 mg/kg/injection, schedule: Q01DX001 (ip), vehicle: other
[8] = T/C endpoint: mean survival time, dose: 100.0 mg/kg/injection, schedule: Q01DX009 (ip), vehicle: saline with Tween-80
[9] = T/C endpoint: mean survival time, dose: 400.0 mg/kg/injection, schedule: Q01DX001 (ip), vehicle: saline
[10] = T/C endpoint: mean survival time, dose: 300.0 mg/kg/injection, schedule: Q01DX001 (ip), vehicle: saline
[11] = T/C endpoint: mean survival time, dose: 50.0 mg/kg/injection, schedule: Q01DX009 (ip), vehicle: saline with Tween-80

SMILES: Cc1ccc(S(=O)(=O)SC(F)(F)F)cc1
- survivor count (T/C endpoint: mean survival time, dose: 20.0 mg/kg/injection, schedule: Q01DX001 (ip), vehicle: saline): 2 of 6
- survivor count (T/C endpoint: mean survival time, dose: 40.0 mg/kg/injection, schedule: Q01DX001 (ip), vehicle: saline): 0 of 6
- survivor count (T/C endpoint: mean survival time, dose: 80.0 mg/kg/injection, schedule: Q01DX001 (ip), vehicle: saline): 0 of 6

SMILES: O=C(OCC(OC(=O)c1ccccc1)C(OC(=O)c1ccccc1)C(O)C(O)CO)c1ccccc1 (stereo not drawn) (tested in a mixture with another compound)
- survivor count [1]: 3 of 3

SMILES: COc1ccc2c(c1O)C1CCCCC13CCN(C)C3C2 (stereo not drawn)
- survivor count (T/C endpoint: mean survival time, dose: 200.0 mg/kg/injection, schedule: Q04DX002 (ip), vehicle: saline with Tween-80): 0 of 3
- survivor count [1]: 0 of 3

SMILES: CCCCCC(C)SC#N (stereo not drawn)
- survivor count [2]: 0 of 6
- survivor count [3]: 0 of 6

SMILES: CC(=O)Nc1ccc(C(=O)CCl)cc1
- survivor count (T/C endpoint: mean survival time, dose: 100.0 mg/kg/injection, schedule: Q01DX009 (ip), vehicle: saline): 0 of 6
- survivor count [4]: 0 of 6
- survivor count (T/C endpoint: mean survival time, dose: 200.0 mg/kg/injection, schedule: Q04DX003 (ip), vehicle: saline with Tween-80): 0 of 6
- survivor count [5]: 0 of 6
- survivor count [6]: 0 of 6

SMILES: O=[N+]([O-])c1ccc(S(=O)Cc2ccccc2)c([N+](=O)[O-])c1 (stereo not drawn)
- survivor count (T/C endpoint: mean survival time, dose: 150.0 mg/kg/injection, schedule: Q01DX001 (ip), vehicle: other): 1 of 6
- survivor count [7]: 0 of 6

SMILES: [Cl][Pt][Cl].c1ccc2[nH]c(C3CCCC[N-]3)nc2c1 (stereo not drawn)
- survivor count [8]: 6 of 6

SMILES: S=C=NCCc1ccccc1
- survivor count [8]: 6 of 6

SMILES: CCN(Cc1ccc(Cl)c(Cl)c1)c1ccc2nc(N)nc(N)c2c1C
- T/C (T/C endpoint: mean survival time, dose: 6.0 mg/kg/injection, schedule: Q01DX009 (ip), vehicle: water): 137 % of control
- T/C (T/C endpoint: mean survival time, dose: 12.0 mg/kg/injection, schedule: Q01DX009 (ip), vehicle: water): 137 % of control
- T/C (T/C endpoint: median survival time, dose: 12.0 mg/kg/injection, schedule: Q01DX009 (ip), vehicle: water): 145 % of control
- T/C (T/C endpoint: median survival time, dose: 24.0 mg/kg/injection, schedule: Q01DX009 (ip), vehicle: water): 142 % of control

SMILES: O=C(C=C(C(F)(F)F)C(F)(F)F)c1ccc(F)cc1
- survivor count (T/C endpoint: mean survival time, dose: 200.0 mg/kg/injection, schedule: Q04DX003 (ip), vehicle: other): 3 of 6
- survivor count (T/C endpoint: mean survival time, dose: 400.0 mg/kg/injection, schedule: Q04DX003 (ip), vehicle: other): 0 of 6

SMILES: [Cl][Pt+2][Cl].[NH-]C1CCC1[NH-] (stereo not drawn)
- T/C (T/C endpoint: median survival time, dose: 5.0 mg/kg/injection, schedule: Q04DX003 (ip), vehicle: Klucel (hydroxypropylcellulose) (HPC)): 133 % of control
- survivor count (T/C endpoint: median survival time, dose: 20.0 mg/kg/injection, schedule: Q04DX003 (ip), vehicle: Klucel (hydroxypropylcellulose) (HPC)): 3 of 6
- survivor count (T/C endpoint: median survival time, dose: 40.0 mg/kg/injection, schedule: Q04DX003 (ip), vehicle: Klucel (hydroxypropylcellulose) (HPC)): 0 of 6
- survivor count (T/C endpoint: median survival time, dose: 80.0 mg/kg/injection, schedule: Q04DX003 (ip), vehicle: Klucel (hydroxypropylcellulose) (HPC)): 1 of 6

SMILES: COc1cc2ccc3c[n+](C)ccc3c2cc1OC
- survivor count (T/C endpoint: mean survival time, dose: 200.0 mg/kg/injection, schedule: Q01DX009 (ip), vehicle: water): 3 of 6 and 5 of 6
- survivor count (T/C endpoint: mean survival time, dose: 400.0 mg/kg/injection, schedule: Q01DX009 (ip), vehicle: water): 0 of 6 (2×)

SMILES: C#CCOCCC(C(C)=O)C(=O)OCC (stereo not drawn)
- survivor count [9]: 1 of 6

SMILES: C#CCOCC1CO1 (stereo not drawn)
- survivor count [10]: 0 of 6

SMILES: O=C(NNC(=S)Nc1cccc(C(F)(F)F)c1)c1ccncc1
- survivor count [11]: 3 of 3
- survivor count [8]: 3 of 3
- survivor count [2]: 3 of 3
- survivor count [1]: 2 of 3

SMILES: C1CC(N2CC2)CCC1N1CC1 (stereo not drawn)
- T/C (T/C endpoint: mean survival time, dose: 4.0 mg/kg/injection, schedule: Q04DX003 (ip), vehicle: saline): 148 % of control
- survivor count (T/C endpoint: mean survival time, dose: 30.0 mg/kg/injection, schedule: Q04DX003 (ip), vehicle: saline): 5 of 10
- survivor count (T/C endpoint: mean survival time, dose: 44.0 mg/kg/injection, schedule: Q04DX003 (ip), vehicle: saline): 0 of 10
- survivor count (T/C endpoint: mean survival time, dose: 67.0 mg/kg/injection, schedule: Q04DX003 (ip), vehicle: saline): 0 of 10
- survivor count (T/C endpoint: mean survival time, dose: 100.0 mg/kg/injection, schedule: Q04DX003 (ip), vehicle: saline): 0 of 10
- survivor count (T/C endpoint: mean survival time, dose: 150.0 mg/kg/injection, schedule: Q04DX003 (ip), vehicle: saline): 0 of 10

SMILES: NC(=O)n1ccnc1
- survivor count [9]: 2 of 6

SMILES: O=C(Nc1ccccc1)c1c(O)[nH]c(=O)[nH]c1=O
- T/C (T/C endpoint: median survival time, dose: 50.0 mg/kg/injection, schedule: Q01DX009 (ip), vehicle: saline with Tween-80): 134 % of control
- T/C (T/C endpoint: median survival time, dose: 100.0 mg/kg/injection, schedule: Q01DX009 (ip), vehicle: saline with Tween-80): 142, 143, 149 % of control
- T/C (T/C endpoint: median survival time, dose: 200.0 mg/kg/injection, schedule: Q01DX009 (ip), vehicle: saline with Tween-80): 134 [5 of 6 alive] and 137 % of control
- survivor count (T/C endpoint: median survival time, dose: 400.0 mg/kg/injection, schedule: Q01DX009 (ip), vehicle: saline with Tween-80): 2 of 6

SMILES: OC1CNCc2cc3c(cc21)OCO3 (stereo not drawn)
- survivor count [9]: 2 of 6

SMILES: CN1CCc2[nH]c3ccccc3c2C1
- survivor count [7]: 0 of 6
- survivor count (T/C endpoint: mean survival time, dose: 400.0 mg/kg/injection, schedule: Q04DX002 (ip), vehicle: Klucel (hydroxypropylcellulose) (HPC)): 0 of 3

SMILES: C=C(N=[N+]=[N-])c1ccccc1
- survivor count (T/C endpoint: mean survival time, dose: 200.0 mg/kg/injection, schedule: Q01DX009 (ip), vehicle: other): 4 of 6

SMILES: CCCCCC/C=N\N=C(N)N
- survivor count (T/C endpoint: mean survival time, dose: 150.0 mg/kg/injection, schedule: Q01DX001 (ip), vehicle: saline): 0 of 6
- survivor count [10]: 0 of 6

SMILES: COC1=C(OC)C(=O)C(SCCCc2ccccc2)=CC1=O
- survivor count [11]: 0 of 3
- survivor count [8]: 0 of 3
- survivor count [2]: 0 of 3

SMILES: CCCCOP(=O)(OC)OCCCC
- survivor count [1]: 0 of 3

SMILES: O=S(=O)(Cc1ccc(CS(=O)(=O)c2ccc(Cl)cc2)cc1)c1ccc(Cl)cc1
- survivor count [8]: 6 of 6
- survivor count [2]: 6 of 6

SMILES: CC(=O)CC(=O)C(F)(F)F.CC(=O)CC(=O)C(F)(F)F.[O]=[V]
- survivor count (T/C endpoint: mean survival time, dose: 30.0 mg/kg/injection, schedule: Q01DX009 (ip), vehicle: saline with Tween-80): 5 of 6

SMILES: COC(=O)c1[nH]cnc1/N=N\N(CCF)CCF
- T/C (T/C endpoint: mean survival time, dose: 8.4 mg/kg/injection, schedule: Q01DX009 (ip), vehicle: carboxymethylcellulose (CMC)): 132 % of control
- survivor count (T/C endpoint: mean survival time, dose: 100.0 mg/kg/injection, schedule: Q01DX001 (ip), vehicle: other): 3 of 6
- survivor count (T/C endpoint: mean survival time, dose: 200.0 mg/kg/injection, schedule: Q01DX001 (ip), vehicle: other): 1 of 6
- survivor count (T/C endpoint: mean survival time, dose: 400.0 mg/kg/injection, schedule: Q01DX001 (ip), vehicle: other): 0 of 6

SMILES: CNC(=O)CCl
- survivor count [4]: 1 of 6
- survivor count [5]: 0 of 6

SMILES: CC(=O)C1COC(O)C1C (stereo not drawn)
- survivor count (T/C endpoint: mean survival time, dose: 100.0 mg/kg/injection, schedule: Q01DX001 (ip), vehicle: saline): 0 of 6
- survivor count (T/C endpoint: mean survival time, dose: 200.0 mg/kg/injection, schedule: Q01DX001 (ip), vehicle: saline): 0 of 6
- survivor count [9]: 0 of 6

SMILES: O=S=NNc1ccccc1
- survivor count [8]: 3 of 6
- survivor count [2]: 3 of 6
- survivor count [6]: 1 of 6

SMILES: NC(CS(=O)c1ccc([N+](=O)[O-])cc1Cl)C(=O)O (stereo not drawn)
- survivor count [2]: 3 of 6
- survivor count [3]: 0 of 6

— PubChem BioAssay AID256 (DTP/NCI, 2004)
